Results: US20090258385A1, “METHOD OF ANALYZING CELLS BY FLOW CYTOMETRY, USE OF AN ANTIOXIDANT AND/OR FREE RADICAL-SCAVENGING AGENT IN SUCH A METHOD AND INCUBATION BUFFER COMPRISING AN ANTIOXIDANT AND/OR FREE RADICAL-SCAVENGING AGENT” (Hopitaux de Paris, priority 2008, published 2009)

Tested on: lymphocytes labeled with anti-CD45 antibody conjugated with APC tandem
Assay: percentage of decoupling of APC tandem on immunolabeled lymphocytes by flow cytometry
Format: cell-based, human
Conditions: anti-CD45 conjugate, 30 minutes, room temperature, dark

Substance	variation of the decoupling ratio during incubation (T0 to T30)
allophycocyanin-Hilite®7-BD [APC-H7]	four- to five-fold increase
allophycocyanin-cyanine 7 [APC-Cy7]	four- to five-fold increase
